Data set [1] in a line: general procedure: Fmoc solid-phase peptide synthesis; Trt-TentaGel (C-terminal acids), Rink Amide (C-terminal amides), Fmoc-Tyr-hydrazide Trt resin (hydrazides); HATU, DiPEA (PEG spacer coupling). The following applies: for isolated mass / isolated yield: whole synthesis; for step yield: coupling step, on MPA thioester used for NCL, over three steps.
A short description of data set [2]: general procedure: Fmoc solid-phase peptide synthesis; Rink Amide; HATU, DiPEA (PEG spacer coupling). The conditions noted are these: whole synthesis.
Where [3] appears, read: scale of the general procedure 10 μmol (optimization tests 25 μmol).

Data on eleven substances can be found in PMC11066871 (Journal of the American Chemical Society, 2024).

Turning to “Ac-YSP TSPpS-YSP TSPpS-YSP TS PpS-YSPTSPpS-YSP TSPpS-YSPTSPpS-NH2”, the isolated mass in data set [1] was 1.23 µmol. In data set [1] (setting [3]), this substance gave an isolated yield of 12%.
The matching figures for “Ac-YSPpTSP S-YSPpTSP S-YSPpTSPS-YSPpTSP S-YSPpTSPS-YSPpTSPS-NH2 [3]”: 0.88 µmol and 9%.
As for “Ac-YpSPTSPS-YpSPTSPS-YpSP TSPS -YpSPTSPS-YpSP TSPS -YpSPTSPS-NH2”, in data set [1] (scale 10 µmol), the isolated mass came to 0.88 µmol and the isolated yield is listed as 9%.
With “H6-NH-(CH2)2-PEG6-CO-(YSPTSPS)6-YAPTSPS-(YSPTSPS)4-YpSPTSPS”, in data set [1], the step yield is recorded as 50%.
On the same count and under the same terms, the result for “H6-NH-(CH2)2-PEG6-CO-(YSPTSPS)6-YAPTSPS-YpSPTSPS-(YSPTSPS)4” reads 10%; that for “H6-NH-(CH2)2-PEG6-CO-YSPTSPS-YpSPTSPS-(YSPTSPS)4-YAPTSPS-(YSPTSPS)2-YpSPTSPS-(YSPTSPS)2”, 26%; that for “H6-NH-(CH2)2-PEG6-CO-YSPTSPS-YpSPTSPS-(YSPTSPS)4-YAPTSPS-(YSPTSPS)4-YpSPTSPS”, 16%.
The same measure, in the same setting: the result for “H6-NH-(CH2)2-PEG6-CO-YSPTSPS-YpSPTSPS-(YSPTSPS)4-YAPTSPS-(YSPTSPS)-YpSPTSPS-(YSPTSPS)3” reads 18%; that for “H6-NH-(CH2)2-PEG6-CO-YSPTSPS-YpSPTSPS-(YSPTSPS)4-YAPTSPS-YpSPTSPS-(YSPTSPS)4”, 33%.
On to “HHHHHH- PEG6-YpSP TSPS -YpSPTSPS-YpSPTSPS-YpSP TSPS -YpSPTSP S-YpSP TSPS -NH2”, for which the isolated mass in data set [1] amounted to 0.79 µmol. The same substance had an isolated yield in data set [1] (setting [3]) of 16%.
Take YSP TSPpS-YpSPTSPS-NH2: the isolated yield in data set [1] (on theoretical full scale of the synthesis, scale of the general procedure 10 μmol (optimization tests 25 μmol)) is on record as 27%. In addition, the isolated mass in data set [2] is recorded as 2.7 3 μmol.
